# Test results as given in article PMC3206029.
# By UniProt entry, the sequences of proteins in these tests, tags left out. Where a name states a change or a piece, a line headed by the entry shows the natural chain unless it says otherwise.
# UniProt Q14790: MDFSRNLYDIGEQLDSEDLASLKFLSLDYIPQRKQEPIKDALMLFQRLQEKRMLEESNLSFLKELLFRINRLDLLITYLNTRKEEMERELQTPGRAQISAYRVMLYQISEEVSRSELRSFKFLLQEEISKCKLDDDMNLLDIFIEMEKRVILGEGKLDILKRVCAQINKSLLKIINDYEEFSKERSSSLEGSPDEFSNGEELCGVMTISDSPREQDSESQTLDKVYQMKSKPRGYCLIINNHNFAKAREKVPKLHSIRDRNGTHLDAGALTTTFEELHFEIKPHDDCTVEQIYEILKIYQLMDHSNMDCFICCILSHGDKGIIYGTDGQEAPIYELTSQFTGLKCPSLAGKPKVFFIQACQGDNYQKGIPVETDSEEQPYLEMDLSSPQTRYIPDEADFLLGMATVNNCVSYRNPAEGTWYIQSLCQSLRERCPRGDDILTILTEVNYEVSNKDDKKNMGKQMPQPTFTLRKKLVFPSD
# UniProt P09486: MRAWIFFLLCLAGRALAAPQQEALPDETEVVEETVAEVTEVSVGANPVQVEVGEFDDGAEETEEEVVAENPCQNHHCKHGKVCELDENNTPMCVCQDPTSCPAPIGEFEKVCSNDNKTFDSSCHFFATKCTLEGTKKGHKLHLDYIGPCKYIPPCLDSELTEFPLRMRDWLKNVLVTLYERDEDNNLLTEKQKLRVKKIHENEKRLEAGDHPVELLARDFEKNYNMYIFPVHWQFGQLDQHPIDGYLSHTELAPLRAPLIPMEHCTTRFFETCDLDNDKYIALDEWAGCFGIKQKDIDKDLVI
# These are yes or no findings as the source states them, for the method shown. Binding seen in cells or lysates may run through a third protein.
# Target: caspase 8 (human (endogenous in MIP101, RKO, MiaPaCa and MCF-7 cells)) (UniProt Q14790)
# Assay: co-IP; whole protein extracts of MIP101 cells stably or transiently overexpressing myc/His6-tagged SPARC domains; antibodies against caspase 8 and His6, reciprocal; Protein A:Protein G beads, PBS, 4°C
row,binding,Substance
1,no binding,"follistatin-like domain of SPARC, myc/His6-tagged (SP-F) (from UniProt P09486) (domain or fragment)"
2,no binding,mutant follistatin-like domain of SPARC SP-Fmut1 (from UniProt P09486) (domain or fragment)
3,no binding,mutant follistatin-like domain of SPARC SP-Fmut2 (from UniProt P09486) (domain or fragment)
